Structures can show the parent of a compound that is named as a salt. ± gives the standard deviation of the averaged measurements. The list shows a part of the results. Baselines shift from plate to plate; read single values as rough.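 A mouse kidney inner medullary collecting duct cell line was silenced for the ciliary gene Rpgrip1l or given non-targeting control siRNA. Primary scores average two runs versus batch controls. In follow-up screening, hits raised cilia at least 2 over matched controls; compounds lowering cell number by 2 or more were excluded. The cells are a mouse kidney inner medullary collecting duct line, silenced either for the ciliary gene Rpgrip1l or with a non-targeting control siRNA.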
How the values were obtained:
mIMCD3 [1] = assay: robust z score of cell number vs plate controls; higher = more cells (less cytotoxic); conditions: 10 µM, 48 h
mIMCD3 [2] = assay: robust z score of cilia incidence (% cells with single cilium) vs plate controls; higher = more ciliated cells; conditions: 10 µM; 48 h; siRNA: siScr
mIMCD3 [3] = assay: robust z score of cilia incidence (% cells with single cilium) vs plate controls; higher = more ciliated cells (rescue of cilia loss); conditions: 10 µM; 48 h; siRNA: siRpgrip1l
mIMCD3 [4] = assay: robust z cell number difference from vehicle control (robust z score difference); higher = more cells; conditions: 10 µM, 48 h
mIMCD3 [5] = assay: robust z cilia incidence difference from vehicle control (robust z score difference); higher = more ciliated cells; conditions: 10 µM; 48 h; siRNA: siScr
mIMCD3 [6] = assay: robust z cilia incidence difference from vehicle control (robust z score difference); higher = more ciliated cells (rescue); conditions: 10 µM; 48 h; siRNA: siRpgrip1l

Compound	robust z score of cell number (mIMCD3 [1]; siRNA: siRpgrip1l)	robust z score of cell number (mIMCD3 [1]; siRNA: siScr)	robust z score of cilia incidence (mIMCD3 [2])	robust z score of cilia incidence (mIMCD3 [3])	robust z cell number difference (mIMCD3 [4]; siRNA: siRpgrip1l)	robust z cell number difference (mIMCD3 [4]; siRNA: siScr)	robust z cilia incidence difference (mIMCD3 [5])	robust z cilia incidence difference (mIMCD3 [6])
C=CCN1C[C@H](C)N([C@H](c2ccc(C(=O)N(CC)CC)cc2)c2cccc(OC)c2)C[C@H]1C	-6.95 ± 3.8	-4.61 ± 1.6	-9.6 ± 2.9	-13.5 ± 4.2				
C=CCN1C[C@H](C)N([C@H](c2ccc(C(=O)N(CC)CC)cc2)c2cccc(O)c2)C[C@H]1C	-1.26 ± 0.46	-2.97 ± 4	1.53 ± 0.74	-93.4 ± 53	-15.6	-8.7 ± 5.9	1.34 ± 3.2	-20.8
CN1Cc2ccccc2[C@@H]2c3cccc4[nH]cc(c34)C[C@H]21	-281 ± 200	-36.8 ± 8.6	-16 ± 9.4	-15.4 ± 4.7				
O=C1Nc2ccccc2C2(CCN(CCc3ccc(C(F)(F)F)cc3)CC2)O1	-41.1 ± 27	-52.3 ± 31	-31.3 ± 13	-55.1 ± 14				
CC(C)(c1ccc(OCC2CO2)cc1)c1ccc(OCC2CO2)cc1 (configuration not stated)	-45.5 ± 40	-39.5 ± 3.2	-32.6 ± 1.7	-25.8 ± 3.5				
S=C(NC1CCCCC1)N1CCC(c2cnc[nH]2)CC1 [Thioperamide]	-7.54 ± 3.8	-15.9 ± 19	-1.17 ± 0.5	-10.9 ± 4.2				
Oc1ccc2c3c1O[C@H]1c4c(c5ccccc5n4Cc4ccccc4)C[C@@]4(O)C(C2)N(CC2CC2)CC[C@]314 [N-Benzylnaltrindole hydrochloride]	-56.3 ± 18	-42.7 ± 6.9	-38 ± 6.1	-34.3 ± 11				
O=[N+]([O-])c1cc(O)c(O)c([N+](=O)[O-])c1	-39.2 ± 34	-20.8 ± 8	-2.49 ± 2	-5.31 ± 0.059				
N.N.[Cl][Pt][Cl] [Cisplatin]	-18.3 ± 26	-4.37 ± 1.6	3.66 ± 1.5	-9.52 ± 0.25	-1.26	-0.964 ± 0.42	3.47 ± 3.1	-2.97
O=c1[nH]c2ccccc2n1CCCN1CCC(n2c(=O)[nH]c3cc(Cl)ccc32)CC1 [Domperidone]	-11.1 ± 3	-59.1 ± 52	-18.7 ± 6.4	-30 ± 0.81				
Cc1[nH]c2ccc(O)cc2c1CCN [2-Methyl-5-hydroxytryptamine hydrochloride]	-4.41 ± 5.9	-1.98 ± 5.3	0.396 ± 2.2	-3.29 ± 12	2.83	-0.56 ± 0.21	-3.64 ± 6.7	4.16
CCC(Oc1ccc(Cl)cc1)C(=O)OC1C[C@H]2CC[C@@H](C1)N2C (some centres not stated) [SM-21 maleate]	-48.9 ± 16	-37.1 ± 8.3	-45 ± 5.4	-40.4 ± 1				
NC(N)=Nc1ccc2[nH]c3c(c2c1)C[C@@]1(O)[C@H]2Cc4ccc(O)c5c4[C@@]1(CCN2CC1CC1)[C@H]3O5 [GNTI dihydrochloride]	-24.7 ± 34	2.35 ± 0.65	2.69 ± 2.2	-7.46 ± 1.5				
O=c1cccc2n1C[C@@H]1CNC[C@H]2C1 [(-)-Cytisine]	4.58 ± 8.8	-2.64 ± 1.5	3.67 ± 1.4	-7.23 ± 5.2	0.678	0.461 ± 2.1	3.77 ± 4.9	0.269
CC(C)n1cnc2c(C(=O)N[C@H]3CN4CCC3CC4)cc(Cl)cc21	-17.1 ± 0.89	-16.8 ± 8.1	-31.7 ± 6.3	-25.4 ± 5.1				
NC1(c2ccccc2Cl)CCCCC1=O (configuration not stated) [Norketamine hydrochloride]	-46.1 ± 62	-0.431 ± 3.5	-1.51 ± 1.3	-8.94 ± 5.6				
COc1cc2c(c(OC)c1OC)-c1ccc(OC)c(=O)cc1[C@@H](NC(C)=O)CC2 [Colchicine]	-54.3 ± 46	-47.7 ± 2.2	-78.3 ± 16	-43.2 ± 1.9				
C[C@H](N)Cn1ccc2cc(F)c(Cl)cc21 [Ro 60-0175 fumarate]	-11 ± 6.5	-13.9 ± 3.6	-24.5 ± 27	-36.9 ± 19				
O=C1CCCN1CC#CCN1CCCC1 [Oxotremorine sesquifumarate]	1.65 ± 1.1	-3.63 ± 1.9	-0.521 ± 0.51	-4 ± 4.5	1.57	-0.0196 ± 0.63	2.9 ± 1.5	1.77
CN1C(=O)CCS(=O)(=O)C1c1ccc(Cl)cc1 (configuration not stated) [Chlormezanone]	0.198 ± 0.26	-8.96 ± 12	-0.0469 ± 4.8	-5.31 ± 3.9				
COC(=O)/C=C/C(=O)N[C@@H]1CC[C@@]2(O)[C@H]3Cc4ccc(O)c5c4[C@@]2(CCN3CC2CC2)[C@H]1O5 [β-Funaltrexamine hydrochloride]	-5.93 ± 1.4	-3.08 ± 2.8	-0.604 ± 4.7	-9.75 ± 2.7				
Cc1onc(O)c1C[C@H](N)C(=O)O	-2.43 ± 4	0.108 ± 1.2	3.19 ± 3.5	-11.7 ± 7.1	1.52	4.49 ± 5.9	-4.64 ± 7.3	3.49
C[N+]1(C)CCc2cc3c(cc2[C@H]1[C@@H]1OC(=O)c2c1ccc1c2OCO1)OCO3 [(-)-Bicuculline methiodide]	-11.1 ± 14	-0.364 ± 1.2	3.42 ± 0.12	-12.7 ± 7.7	-3.56	-1.08 ± 3.1	3.42 ± 1.4	-2.66
CC[C@@H](CO)NC(=O)[C@@H]1C=C2c3cccc4c3c(cn4C)C[C@H]2N(C)C1 [Methysergide maleate]	-4.5 ± 0.97	-5.19 ± 4.4	-0.552 ± 3	-9.57 ± 5.5				
CN1[C@@H]2C[C@@H](OC(=O)[C@H](CO)c3ccccc3)C[C@H]1[C@@H]1O[C@@H]12 [Scopolamine hydrobromide]	1.97 ± 9.6	0.214 ± 1.5	-5.13 ± 9.7	-7.92 ± 0.54	-0.109	0.501 ± 1.1	4.26 ± 2.7	-0.412

A draw from above in order of number of heavy atoms, smallest number first.
Compound	robust z score of cell number (mIMCD3 [1]; siRNA: siRpgrip1l)	robust z score of cell number (mIMCD3 [1]; siRNA: siScr)	robust z score of cilia incidence (mIMCD3 [2])	robust z score of cilia incidence (mIMCD3 [3])	robust z cell number difference (mIMCD3 [4]; siRNA: siRpgrip1l)	robust z cell number difference (mIMCD3 [4]; siRNA: siScr)	robust z cilia incidence difference (mIMCD3 [5])	robust z cilia incidence difference (mIMCD3 [6])
O=C1CCCN1CC#CCN1CCCC1 [Oxotremorine sesquifumarate]	1.65 ± 1.1	-3.63 ± 1.9	-0.521 ± 0.51	-4 ± 4.5	1.57	-0.0196 ± 0.63	2.9 ± 1.5	1.77
CCC(Oc1ccc(Cl)cc1)C(=O)OC1C[C@H]2CC[C@@H](C1)N2C (some centres not stated) [SM-21 maleate]	-48.9 ± 16	-37.1 ± 8.3	-45 ± 5.4	-40.4 ± 1				
COc1cc2c(c(OC)c1OC)-c1ccc(OC)c(=O)cc1[C@@H](NC(C)=O)CC2 [Colchicine]	-54.3 ± 46	-47.7 ± 2.2	-78.3 ± 16	-43.2 ± 1.9				

— the supplement of paper PMC12009310
